According to US12059448B2, “Pharmaceutical composition comprising thrombolytic peptide-tetrahydroisoquinoline conjugate” (Lumosa Therapeutics Co., LTD, priority 2019, dated 2024):
Part of at least one peptide drawing is inferred or uncertain, most often the ends.

Test: Formulation stability in different pH solutions (Example 3), relative purity level by HPLC
Assay type: physicochemical

C[C@H](NC(=O)[C@@H]1CCCN1)C(=O)N[C@@H](CCCCN)C(=O)NCCCC[C@H](NC(=O)[C@@H]1Cc2cc(O)c(O)cc2C(C)(C)N1)C(=O)O [DC009, 3S-6,7-dihydroxy-1,1-dimethyl-1,2,3,4-tetrahydro-isoquinoline-3-acyl-Lys(Pro-Ala-Lys)]
purity level (all acidic conditions (pH<7), 10 days at 60° C.): > 95%
purity level (pH 1 to pH 6, one-month storage at 60° C. (Day 38)): > 86%
